# No constants are given. Whether binding was seen depends on the method and setting. For part of these data: In cells and extracts the contact can be indirect. Some entries that bind do so weakly or less than the wild type. For part of these data: Sequences can lack the tags named with a protein.
# The chains behind the UniProt entries cited, without tags or fusion partners. Where a name states a change or a piece, a line headed by the entry shows the natural chain unless it says otherwise. Residues count along the entry.
# UniProt Q63472: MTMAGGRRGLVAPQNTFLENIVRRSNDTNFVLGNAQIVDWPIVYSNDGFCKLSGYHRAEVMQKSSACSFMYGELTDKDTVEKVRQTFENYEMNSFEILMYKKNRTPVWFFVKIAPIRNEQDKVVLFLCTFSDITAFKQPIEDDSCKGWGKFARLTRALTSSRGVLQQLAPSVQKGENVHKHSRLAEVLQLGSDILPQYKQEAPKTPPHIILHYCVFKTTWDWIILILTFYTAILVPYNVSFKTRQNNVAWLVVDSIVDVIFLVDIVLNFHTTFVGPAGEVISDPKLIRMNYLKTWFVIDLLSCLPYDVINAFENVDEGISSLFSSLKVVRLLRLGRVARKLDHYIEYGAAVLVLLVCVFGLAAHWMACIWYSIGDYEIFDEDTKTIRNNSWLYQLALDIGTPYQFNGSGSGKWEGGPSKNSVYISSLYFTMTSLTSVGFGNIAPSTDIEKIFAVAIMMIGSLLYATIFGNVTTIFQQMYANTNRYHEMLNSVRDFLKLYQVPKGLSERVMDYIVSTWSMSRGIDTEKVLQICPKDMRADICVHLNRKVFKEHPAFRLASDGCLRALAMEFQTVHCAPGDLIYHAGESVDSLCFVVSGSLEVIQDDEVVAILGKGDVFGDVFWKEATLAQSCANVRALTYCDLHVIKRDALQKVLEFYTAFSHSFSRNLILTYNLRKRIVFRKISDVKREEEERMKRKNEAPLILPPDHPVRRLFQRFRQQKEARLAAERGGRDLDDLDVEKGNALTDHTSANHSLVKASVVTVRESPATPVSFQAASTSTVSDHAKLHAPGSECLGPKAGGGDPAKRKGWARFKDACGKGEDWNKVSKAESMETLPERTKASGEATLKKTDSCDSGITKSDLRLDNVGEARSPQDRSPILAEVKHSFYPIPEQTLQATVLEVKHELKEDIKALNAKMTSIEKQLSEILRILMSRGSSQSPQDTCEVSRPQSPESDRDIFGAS
# cytoplasmic C-terminal region (amino acids 493-962) of rat Eag1, two-hybrid bait: residues 493-962 of Q63472
# T1: GST fusion protein encoding the C-terminal region (amino acids 355-481) of the MKRN1 long isoform (rat)
# T1 sequence: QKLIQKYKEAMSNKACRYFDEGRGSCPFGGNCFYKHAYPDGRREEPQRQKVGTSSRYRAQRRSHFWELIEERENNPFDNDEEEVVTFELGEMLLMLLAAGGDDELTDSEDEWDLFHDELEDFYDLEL
# B1: rat MKRN1 two-hybrid clone (amino acids 142-481 of the long isoform) (domain or fragment, UniProt A0A0G2QC40 142-481)
# chain: AEMNPGEAESRNPNFPTVGAGSEDWVNAIEFVPGQPYCGRTAPSCTEVPLQGSVTKEESEKEPTTVETEKQLCPYAAVGECRYGENCVYLHGDSCDMCGLQVLHPMDAAQRSQHIKSCIEAHEKDMELSFAVQRSKDMVCGICMEVVYEKANPSERRFGILSNCNHTYCLKCIRKWRSAKQFESKIIKSCPECRITSNFVIPSEYWVEEKEEKQKLIQKYKEAMSNKACRYFDEGRGSCPFGGNCFYKHAYPDGRREEPQRQKVGTSSRYRAQRRSHFWELIEERENNPFDNDEEEVVTFELGEMLLMLLAAGGDDELTDSEDEWDLFHDELEDFYDLEL
# B2: rat MKRN1 two-hybrid clone (amino acids 355-481 of the long isoform) (domain or fragment, UniProt A0A0G2QC40 355-481)
# chain: QKLIQKYKEAMSNKACRYFDEGRGSCPFGGNCFYKHAYPDGRREEPQRQKVGTSSRYRAQRRSHFWELIEERENNPFDNDEEEVVTFELGEMLLMLLAAGGDDELTDSEDEWDLFHDELEDFYDLEL
# Key:
# [1] = molecular target: T1, GST fusion protein encoding the C-terminal region (amino acids 355-481) of the MKRN1 long isoform (rat); assay: pull-down; GST fusion protein on glutathione-agarose beads (4-8 μg) incubated overnight at 4 °C with rat brain lysates (crude membrane fractions); immunoblot with anti-Eag1; only the target purified
# [2] = molecular target: cytoplasmic C-terminal region (amino acids 493-962) of rat Eag1, two-hybrid bait (rat) (UniProt Q63472); assay: two-hybrid; yeast two-hybrid screening of a rat brain cDNA library with the cytoplasmic C-terminal region (amino acids 493-962) of rat Eag1 as the bait
Molecule,binding [1],binding [2]
endogenous Eag1 (from UniProt Q63472 1-962),binds,
B1,,binds
B2,,binds

# Source: article PMC8039722
